PubChem BioAssay AID1508597 – Cure First – 2020
The deposit covers about 2,100 reagents; shown is a random part of them. 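Calls flag viability under 80% in either arm, not effects specific to rucaparib; the reference for percent is not stated.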 A number with no mark means an inactive call. A reagent listed more than once was tested more than once; the source does not tell the runs apart. The record does not give: the 100% reference.

Test: 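Genes whose silencing sensitises or protects ovarian cancer cells against rucaparib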 (primary screen)
System: human ovarian carcinoma lines grown from tumours: OCI-P5x (papillary serous) and OCI-C5x (clear cell)
Knock-down reagent: siRNA pool against human genes, 1.25 pmol siRNA per well
Duration: 72 h or 96 h, depending on the cell culture
Challenge: rucaparib 20 µM (about IC30) or vehicle, present until read-out
Read-out: 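Luminescent ATP-based viability assay read 72 or 96 h after transfection, depending on culture, given as normalised percent viability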
Scale: viability, normalised: higher = more viable cells remaining
Active means: 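a well counts as a hit if its normalised viability is under 80 percent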
Calls: active = viability under 80%; inactive = viability 80% or more

Target gene	rucaparib or vehicle	cell line	technical replicate	viability, normalised (%)
ACTB (actin beta)	Rucaparib	OCI-C5x (clear cell)	1	40.6 (active)
ACTB (actin beta)	Rucaparib	OCI-C5x (clear cell)	2	46.8 (active)
ACTB (actin beta)	Rucaparib	OCI-C5x (clear cell)	3	27.4 (active)
ACTB (actin beta)	Rucaparib	OCI-P5x (serous)	1	65.6 (active)
ACTB (actin beta)	Rucaparib	OCI-P5x (serous)	2	49.3 (active)
ACTB (actin beta)	Rucaparib	OCI-P5x (serous)	3	57.7 (active)
ACTB (actin beta)	Vehicle	OCI-C5x (clear cell)	1	47.9 (active)
ACTB (actin beta)	Vehicle	OCI-C5x (clear cell)	2	34.2 (active)
ACTB (actin beta)	Vehicle	OCI-C5x (clear cell)	3	27.1 (active)
ACTB (actin beta)	Vehicle	OCI-P5x (serous)	1	41.9 (active)
ACTB (actin beta)	Vehicle	OCI-P5x (serous)	2	64.5 (active)
ACTB (actin beta)	Vehicle	OCI-P5x (serous)	3	68.5 (active)
ELP3 (elongator acetyltransferase complex subunit 3)	Rucaparib	OCI-C5x (clear cell)	1	37 (active)
ELP3 (elongator acetyltransferase complex subunit 3)	Rucaparib	OCI-C5x (clear cell)	2	43.8 (active)
ELP3 (elongator acetyltransferase complex subunit 3)	Rucaparib	OCI-C5x (clear cell)	3	32.3 (active)
ELP3 (elongator acetyltransferase complex subunit 3)	Rucaparib	OCI-P5x (serous)	1	67.4 (active)
ELP3 (elongator acetyltransferase complex subunit 3)	Rucaparib	OCI-P5x (serous)	2	65.4 (active)
ELP3 (elongator acetyltransferase complex subunit 3)	Rucaparib	OCI-P5x (serous)	3	56 (active)
ELP3 (elongator acetyltransferase complex subunit 3)	Vehicle	OCI-C5x (clear cell)	1	41.3 (active)
ELP3 (elongator acetyltransferase complex subunit 3)	Vehicle	OCI-C5x (clear cell)	2	58.2 (active)
ELP3 (elongator acetyltransferase complex subunit 3)	Vehicle	OCI-C5x (clear cell)	3	52.1 (active)
ELP3 (elongator acetyltransferase complex subunit 3)	Vehicle	OCI-P5x (serous)	1	60 (active)
ELP3 (elongator acetyltransferase complex subunit 3)	Vehicle	OCI-P5x (serous)	2	70.2 (active)
ELP3 (elongator acetyltransferase complex subunit 3)	Vehicle	OCI-P5x (serous)	3	61.5 (active)
RECQL (RecQ like helicase)	Rucaparib	OCI-C5x (clear cell)	1	58.9 (active)
RECQL (RecQ like helicase)	Rucaparib	OCI-C5x (clear cell)	1	50.8 (active)
RECQL (RecQ like helicase)	Rucaparib	OCI-C5x (clear cell)	2	41.6 (active)
RECQL (RecQ like helicase)	Rucaparib	OCI-C5x (clear cell)	2	54.8 (active)
RECQL (RecQ like helicase)	Rucaparib	OCI-C5x (clear cell)	3	56.2 (active)
RECQL (RecQ like helicase)	Rucaparib	OCI-C5x (clear cell)	3	37.6 (active)
RECQL (RecQ like helicase)	Rucaparib	OCI-P5x (serous)	1	83.6
RECQL (RecQ like helicase)	Rucaparib	OCI-P5x (serous)	1	41.8 (active)
RECQL (RecQ like helicase)	Rucaparib	OCI-P5x (serous)	2	43.3 (active)
RECQL (RecQ like helicase)	Rucaparib	OCI-P5x (serous)	2	75.8 (active)
RECQL (RecQ like helicase)	Rucaparib	OCI-P5x (serous)	3	67.1 (active)
RECQL (RecQ like helicase)	Rucaparib	OCI-P5x (serous)	3	61.3 (active)
RECQL (RecQ like helicase)	Vehicle	OCI-C5x (clear cell)	1	46.4 (active)
RECQL (RecQ like helicase)	Vehicle	OCI-C5x (clear cell)	1	80.1
RECQL (RecQ like helicase)	Vehicle	OCI-C5x (clear cell)	2	62 (active)
RECQL (RecQ like helicase)	Vehicle	OCI-C5x (clear cell)	2	33.6 (active)
RECQL (RecQ like helicase)	Vehicle	OCI-C5x (clear cell)	3	31 (active)
RECQL (RecQ like helicase)	Vehicle	OCI-C5x (clear cell)	3	69.7 (active)
RECQL (RecQ like helicase)	Vehicle	OCI-P5x (serous)	1	76 (active)
RECQL (RecQ like helicase)	Vehicle	OCI-P5x (serous)	1	67.7 (active)
RECQL (RecQ like helicase)	Vehicle	OCI-P5x (serous)	2	62.5 (active)
RECQL (RecQ like helicase)	Vehicle	OCI-P5x (serous)	2	59 (active)
RECQL (RecQ like helicase)	Vehicle	OCI-P5x (serous)	3	74.5 (active)
RECQL (RecQ like helicase)	Vehicle	OCI-P5x (serous)	3	83.3
NEK4 (NIMA related kinase 4)	Rucaparib	OCI-C5x (clear cell)	1	44 (active)
NEK4 (NIMA related kinase 4)	Rucaparib	OCI-C5x (clear cell)	2	45.1 (active)
NEK4 (NIMA related kinase 4)	Rucaparib	OCI-C5x (clear cell)	3	40.6 (active)
NEK4 (NIMA related kinase 4)	Rucaparib	OCI-P5x (serous)	1	80.6
NEK4 (NIMA related kinase 4)	Rucaparib	OCI-P5x (serous)	2	46.6 (active)
NEK4 (NIMA related kinase 4)	Rucaparib	OCI-P5x (serous)	3	64.2 (active)
NEK4 (NIMA related kinase 4)	Vehicle	OCI-C5x (clear cell)	1	46 (active)
NEK4 (NIMA related kinase 4)	Vehicle	OCI-C5x (clear cell)	2	48.4 (active)
NEK4 (NIMA related kinase 4)	Vehicle	OCI-C5x (clear cell)	3	52.4 (active)
NEK4 (NIMA related kinase 4)	Vehicle	OCI-P5x (serous)	1	73.5 (active)
NEK4 (NIMA related kinase 4)	Vehicle	OCI-P5x (serous)	2	86.8
NEK4 (NIMA related kinase 4)	Vehicle	OCI-P5x (serous)	3	93.6

Reformatted: entries from further up
Target gene,rucaparib or vehicle,cell line,technical replicate,"viability, normalised (%)"
RECQL (RecQ like helicase),Rucaparib,OCI-C5x (clear cell),2,54.8 (active)
RECQL (RecQ like helicase),Rucaparib,OCI-C5x (clear cell),3,56.2 (active)
RECQL (RecQ like helicase),Rucaparib,OCI-C5x (clear cell),3,37.6 (active)
RECQL (RecQ like helicase),Rucaparib,OCI-P5x (serous),1,83.6
RECQL (RecQ like helicase),Rucaparib,OCI-P5x (serous),1,41.8 (active)
